Test results taken from patent US20170189504A1, “NOVEL PEPTIDES AND COMBINATION OF PEPTIDES FOR USE IN IMMUNOTHERAPY AGAINST VARIOUS CANCERS” (immatics biotechnologies GmbH, priority 2015, published 2017).
For some of these results: Expression values are those of the mRNA of the gene that encodes the peptide; a gene is named only where it was looked up.

Key:
[1] = tested on: source genes (mRNA); assay: Gene and exon expression of source genes, TCGA tumor samples compared with normal tissue samples (Lonsdale, 2013) (Table 17); design: species or system human; conditions: for Target coverage: over-expression category of source gene, LAML: Acute Myeloid Leukemia (N = 173); for Target coverage: over-expression category of source gene, BLCA: Bladder urothelial carcinoma (N = 408); for Target coverage: over-expression category of source gene, BRCA: Breast cancer (N = 1104), cutoff more than 2-fold above highest 75% percentile of high and medium risk normal tissue samples; for Target coverage: over-expression category of source gene, READ: Colon and rectal adenocarcinoma (N = 167); for Target coverage: over-expression category of source gene, COAD: Colon and rectal adenocarcinoma (N = 462); for Target coverage: over-expression category of source gene, ESCA: Esophageal cancer (N = 185); for Target coverage: over-expression category of source gene, GBM: Glioblastoma multiforme (N = 169); for Target coverage: over-expression category of source gene, LGG: Lower grade glioma (N = 534); for Target coverage: over-expression category of source gene, LUAD: Lung adenocarcinoma (N = 517); for Target coverage: over-expression category of source gene, LUSC: Lung squamous cell carcinoma (N = 503); for Target coverage: over-expression category of source gene, DLBC: Lymphoid neoplasm diffuse large B-cell lymphoma (N = 48); for Target coverage: over-expression category of source gene, OV: Ovarian serous cystadenocarcinoma (N = 309); for Target coverage: over-expression category of source gene, SKCM: Skin cutaneous melanoma (N = 473); for Target coverage: over-expression category of source gene, STAD: Stomach adenocarcinoma (N = 415); for Target coverage: over-expression category of source gene, UCEC: Uterine corpus endometrial carcinoma (N = 546); for Target coverage: over-expression category of source gene, CHOL: Cholangiocarcinoma (N = 36); for Target coverage: over-expression category of source gene, PRAD: Prostate adenocarcinoma (N = 498)
[2] = tested on: HLA-A*02; assay: Identification and relative LC-MS quantitation of HLA-A*02-presented tumor-associated peptides on tissue samples (presentation profiles, Tables 13A, 13B, 15, FIG. 1); design: species or system human; key to Presentation score NHL / Presentation score CLL / Presentation score BRCA / Presentation score AML / Presentation score GB / Presentation score NSCLC / Presentation score GBC_CCC / Presentation score UEC / Presentation score MEL / Presentation score OSCAR / Presentation score GC / Presentation score UBC / Presentation score OC / Presentation score RCC / Presentation score CRC / Presentation score PCA / Presentation score HCC / Presentation score PC / Presentation score SCLC: specifically presented on tumors (++++); very highly over-presented on tumors compared to a panel of normal tissues (+++); highly over-presented on tumors compared to a panel of normal tissues (++); over-presented on tumors compared to a panel of normal tissues (+); conditions: for Presentation score OSCAR / Presentation score GC / Presentation score NSCLC: HLA-A*02 peptides; for Presentation score OSCAR: esophageal cancer, including cancer of the gastric-esophageal junction (N = 17) vs panel of normal tissues (N = 262); for Presentation score GC: gastric cancer (N = 29) vs panel of normal tissues (N = 262); for Presentation score NSCLC: non-small cell lung cancer (N = 90) vs panel of normal tissues (N = 262); for Peptide Presentation on cancer entities: Table 13A, HLA-A*02-binding tumor-associated peptides, cancer entities on which the peptide was found presented
[3] = tested on: source genes (mRNA); assay: Expression profiling of source genes by in-house RNASeq of tumor and normal tissues (Table 18, FIG. 2); design: species or system human; key: very highly over-expressed in tumors compared to a panel of normal tissues (+++); highly over-expressed in tumors compared to a panel of normal tissues (++); over-expressed in tumors compared to a panel of normal tissues (+); conditions: source gene of peptide; for Expression score BRCA: BRCA tumors vs panel of normal tissues; for Expression score OSCAR: esophageal cancer incl. gastric-esophageal junction (N = 11) vs panel of normal tissues; for Expression score OC: ovarian cancer (N = 12) vs panel of normal tissues; for Expression score HCC: hepatocellular carcinoma (N = 15) vs panel of normal tissues
[4] = cutoff more than 2-fold above highest 75% percentile of normal tissue samples

Row | Substance | Target coverage: over-expression category of source gene, LAML [1, 4] | Target coverage: over-expression category of source gene, BLCA [1, 4] | Target coverage: over-expression category of source gene, BRCA [1] | Target coverage: over-expression category of source gene, READ [1, 4] | Target coverage: over-expression category of source gene, COAD [1, 4] | Target coverage: over-expression category of source gene, ESCA [1, 4] | Target coverage: over-expression category of source gene, GBM [1, 4] | Target coverage: over-expression category of source gene, LGG [1, 4] | Target coverage: over-expression category of source gene, LUAD [1, 4] | Target coverage: over-expression category of source gene, LUSC [1, 4] | Target coverage: over-expression category of source gene, DLBC [1, 4] | Target coverage: over-expression category of source gene, OV [1, 4] | Target coverage: over-expression category of source gene, SKCM [1, 4] | Target coverage: over-expression category of source gene, STAD [1, 4] | Target coverage: over-expression category of source gene, UCEC [1, 4] | Presentation score OSCAR [2] | Presentation score GC [2] | Presentation score NSCLC [2] | Peptide Presentation on cancer entities [2] | Expression score BRCA [3] | further results
1 | 75: peptide found in MSH2 (gene looked up) (AVIKFLELL; listed as Homo sapiens) [compound 75] | A (>=50% of tumors above the cutoff) | C (>=5% of tumors above the cutoff, but <20%) | B (>= 20% of tumors above the cutoff, but <50%) | C (>=5% of tumors above the cutoff, but <20%) | B (>= 20% of tumors above the cutoff, but <50%) | C (>=5% of tumors above the cutoff, but <20%) | C (>=5% of tumors above the cutoff, but <20%) | C (>=5% of tumors above the cutoff, but <20%) | C (>=5% of tumors above the cutoff, but <20%) | B (>= 20% of tumors above the cutoff, but <50%) | B (>= 20% of tumors above the cutoff, but <50%) | B (>= 20% of tumors above the cutoff, but <50%) | B (>= 20% of tumors above the cutoff, but <50%) | C (>=5% of tumors above the cutoff, but <20%) | C (>=5% of tumors above the cutoff, but <20%) | ++++ | ++++ | ++++ | GC, NSCLC, OSCAR | + | Expression score CRC ([3]; colorectal cancer (N = 20) vs panel of normal tissues): +; Expression score OSCAR [3]: +; Expression score GBC_CCC ([3]; gallbladder adenocarcinoma and cholangiocarcinoma (N = 3) vs panel of normal tissues): +; Expression score GB ([3]; glioblastoma (N = 24) vs panel of normal tissues): +; Expression score NHL ([3]; non-Hodgkin lymphoma (N = 10) vs panel of normal tissues): +; Expression score NSCLC ([3]; non-small cell lung cancer (N = 11) vs panel of normal tissues): +; Expression score OC [3]: ++; Expression score SCLC ([3]; small cell lung cancer (N = 10) vs panel of normal tissues): +++; Expression score UBC ([3]; urinary bladder cancer (N = 10) vs panel of normal tissues): +; Expression score UEC ([3]; uterine cancer (N = 10) vs panel of normal tissues): +
2 | 79: peptide found in CBX4 (gene looked up) (VTFKEYVTV; listed as Homo sapiens) [compound 79] | C (>=5% of tumors above the cutoff, but <20%) |  | B (>= 20% of tumors above the cutoff, but <50%) | C (>=5% of tumors above the cutoff, but <20%) | C (>=5% of tumors above the cutoff, but <20%) | C (>=5% of tumors above the cutoff, but <20%) |  | C (>=5% of tumors above the cutoff, but <20%) | C (>=5% of tumors above the cutoff, but <20%) | C (>=5% of tumors above the cutoff, but <20%) |  | C (>=5% of tumors above the cutoff, but <20%) | B (>= 20% of tumors above the cutoff, but <50%) | B (>= 20% of tumors above the cutoff, but <50%) |  | ++++ | ++++ | ++++ | GC, NSCLC, OSCAR | + | Target coverage: over-expression category of source gene, CHOL [1, 4]: C (>=5% of tumors above the cutoff, but <20%); Target coverage: over-expression category of source gene, PRAD [1, 4]: C (>=5% of tumors above the cutoff, but <20%); Expression score CLL ([3]; chronic lymphocytic leukemia (N = 10) vs panel of normal tissues): +; Expression score OSCAR [3]: +; Expression score HCC [3]: +
3 | 81: peptide found in ALG8 (gene looked up) (NALDKVLSV; listed as Homo sapiens) [compound 81] | A (>=50% of tumors above the cutoff) | A (>=50% of tumors above the cutoff) | A (>=50% of tumors above the cutoff) | A (>=50% of tumors above the cutoff) | A (>=50% of tumors above the cutoff) | A (>=50% of tumors above the cutoff) | A (>=50% of tumors above the cutoff) | B (>= 20% of tumors above the cutoff, but <50%) | A (>=50% of tumors above the cutoff) | A (>=50% of tumors above the cutoff) | A (>=50% of tumors above the cutoff) | A (>=50% of tumors above the cutoff) | A (>=50% of tumors above the cutoff) | A (>=50% of tumors above the cutoff) | A (>=50% of tumors above the cutoff) | ++++ | ++++ | ++++ | GC, NSCLC, OSCAR |  | Target coverage: over-expression category of source gene, CHOL [1, 4]: A (>=50% of tumors above the cutoff); Target coverage: over-expression category of source gene, KIRC ([1]; Clear cell kidney carcinoma (N = 534), cutoff more than 2-fold above highest 75% percentile of normal tissue samples): A (>=50% of tumors above the cutoff); Target coverage: over-expression category of source gene, KICH ([1]; Kidney chromophobe (N = 66), cutoff more than 2-fold above highest 75% percentile of normal tissue samples): A (>=50% of tumors above the cutoff); Target coverage: over-expression category of source gene, LIHC ([1]; Liver hepatocellular carcinoma (N = 374), cutoff more than 2-fold above highest 75% percentile of normal tissue samples): A (>=50% of tumors above the cutoff); Target coverage: over-expression category of source gene, PAAD ([1]; Pancreatic ductal adenocarcinoma (N = 179), cutoff more than 2-fold above highest 75% percentile of normal tissue samples): A (>=50% of tumors above the cutoff); Target coverage: over-expression category of source gene, KIRP ([1]; Papillary kidney carcinoma (N = 291), cutoff more than 2-fold above highest 75% percentile of normal tissue samples): A (>=50% of tumors above the cutoff); Target coverage: over-expression category of source gene, PRAD [1, 4]: A (>=50% of tumors above the cutoff); Expression score HCC [3]: +; Expression score OC [3]: +
